Data source: PubChem BioAssay AID743454 (Peter MacCallum Cancer Centre, 2014)

Assay: 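Knock-downs lowering viability or raising caspase 3/7 activity in vorinostat-treated resistant cells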 (primary screen)
Cell system: human HCT116-VR colon cancer cells, selected for vorinostat resistance
Reagent: siRNA pool against human genes, 40 nM siRNA pool
Duration: vorinostat for 24 h, read-out about 72 h after transfection
Treatment: vorinostat at 2.5 µM final
Measured: 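Cell viability by CellTiter-Fluor and caspase 3/7 activity by luminescence, each scaled to mock wells per plate, duplicates averaged, then robust z-scored over all plates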
Direction: viability robust z-score: higher = more viable cells than screen typical; caspase robust z-score: higher = more caspase 3/7 activity than screen typical
Rule for the call: 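a knock-down is a hit when classed RV1 or RV2 for lowered viability, or CA1 or CA2 for caspase activation; those lethal without drug were dropped; hits were retested singly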
The whole screen tested about 18,000 reagents; shown is an unselected part. 450 of them (2.5%) were called active. 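Single biological run; no consistent viability z cut-off exists, so the class columns, not z-scores, define the calls.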 Entries without a mark were called inactive.

gene symbol	viability hit class	caspase hit class	viability robust z-score	caspase robust z-score
HS3ST4	no change	no change	1	-0.43
B4GALNT4	no change	no change	-0.52	-0.82
ILDR2	no change	no change	0.68	0.82
RTF1	no change	no change	-1.42	4.27
PRRC1	no change	no change	0.26	0.18
TGFB3	no change	no change	-0.46	-0.18
SYT11	no change	no change	-1.62	0.82
UNC93A	no change	no change	1.06	0.24
OR5J2	no change	no change	0.05	-0.74
LYN	no change	no change	-0.9	-0.41
ARMCX2	no change	no change	0.34	-0.36
KCNE5	no change	no change	-0.98	1.42
IRAK1	no change	no change	-0.96	1.58
TLX1	no change	no change	0.15	0.86
TSN	no change	no change	1.05	-0.54
RHBDL1	no change	no change	-0.52	0.7
MAGIX	no change	no change	-0.78	3.46
BRICD5	no change	no change	0.82	-0.2
C19orf47	no change	no change	0.45	0.53
C1QTNF2	no change	no change	-0.44	1.8
TERB2	no change	no change	0.82	1.08
BCL11A	no change	no change	-1.12	2.11
DDIAS	no change	no change	-0.75	-0.01
PITRM1	no change	no change	-0.21	-0.62
CLIP3	no change	no change	0.9	1.21
ZNF133	no change	no change	-0.6	-1.31
PCDHA7	no change	no change	-0.85	-0.61
IGF1	no change	no change	-0.12	3.8
PAOX	no change	no change	-0.52	0.52
EDEM3	no change	no change	0.48	-0.38
PJVK	no change	no change	0.58	-0.74
TMC4	no change	no change	0.72	1.15
ZDHHC5	no change	no change	-0.32	0.31
TMPRSS7	no change	no change	-0.78	3
CYP46A1	no change	no change	-0.44	0.57
PRLR	no change	no change	-0.22	-0.37
KRTAP5-3	no change	no change	0.84	0.56
GARNL3	no change	no change	-0.63	-0.94
IL21	no change	no change	0.36	3.4
GNLY	no change	no change	-0.36	2.39
C2orf42	no change	no change	0.66	-0.46

The list goes on; the last 10 above are carried over.
gene symbol	viability hit class	caspase hit class	viability robust z-score	caspase robust z-score
TMC4	no change	no change	0.72	1.15
ZDHHC5	no change	no change	-0.32	0.31
TMPRSS7	no change	no change	-0.78	3
CYP46A1	no change	no change	-0.44	0.57
PRLR	no change	no change	-0.22	-0.37
KRTAP5-3	no change	no change	0.84	0.56
GARNL3	no change	no change	-0.63	-0.94
IL21	no change	no change	0.36	3.4
GNLY	no change	no change	-0.36	2.39
C2orf42	no change	no change	0.66	-0.46
ENGASE	no change	no change	-0.3	3.02
TXNDC17	no change	no change	-0.26	-0.69
PDE3B	no change	no change	-0.45	0.76
TFEC	no change	no change	-0.1	-1.09
ELMO1	no change	no change	-0.53	-0.33
SSC4D	no change	no change	-0.2	2.57
PLCB4	no change	no change	-0.72	0.76
PSCA	no change	no change	-2.23	-1.36
RITA1	no change	no change	1.68	-0.72
ZNF444	no change	no change	-0.64	-0.02
ZNF441	no change (active)	CA1 (caspase activation)	0.97	6.79
BPY2C	no change	no change	-0.72	4.09
LRRC41	no change	no change	0.48	-0.81
SPANXA2	no change	no change	-3.14	-0.68
DENND10P1	no change	no change	-0.44	-0.12
GPIHBP1	no change	no change	-1.64	1.88
KHDC1	no change	no change	1.48	0.45
RECQL5	no change	no change	1.1	-0.15
METTL25B	no change	no change	-0.13	-0.89
CALCR	no change	no change	-0.78	-0.44
NHLRC4	no change	no change	-0.09	0.18
HEY2	no change	no change	0.16	-0.38
POLR2G	no change (active)	CA2 (caspase activation)	-3	5.93
OXLD1	no change	no change	-0.03	-0.72
MPHOSPH8	no change	no change	0.83	0.56
CST2	no change	no change	-1.38	2.26
THRAP3	no change	no change	-0.01	0.01
CCDC181	no change	no change	0.68	-0.42
PCDH20	no change	no change	0.1	-1.19
ATP13A4	no change	no change	0.06	-0.16
SLC8B1	no change	no change	0.66	0.15
DNASE2B	no change	no change	0.8	-0.75
